Source: paper doi:10.1101/2025.03.12.642038

How the values were obtained:
[1] = target: T1, IRF4 DBD R98A/C99A (Homo sapiens) (UniProt Q15306); assay: SPR steady state; details: residues 20-132
T1 sequence (looked up): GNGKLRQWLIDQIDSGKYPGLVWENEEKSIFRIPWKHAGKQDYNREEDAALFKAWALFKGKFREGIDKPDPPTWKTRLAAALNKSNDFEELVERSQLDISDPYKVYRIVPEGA

[2] = target: T2, IRF4 DBD R98A (Homo sapiens) (UniProt Q15306); assay: SPR steady state; details: residues 20-132
T2 sequence (looked up): T1 sequence (looked up) with A80C

[3] = target: T1, IRF4 DBD R98A/C99A (Homo sapiens); assay: SPR two-state kinetic; details: residues 20-132
[4] = target: T2, IRF4 DBD R98A (Homo sapiens); assay: SPR two-state kinetic; details: residues 20-132
[5] = target: T1, IRF4 DBD R98A/C99A (Homo sapiens); assay: FP; details: residues 20-132
[6] = target: T2, IRF4 DBD R98A (Homo sapiens); assay: FP; details: residues 20-132
[7] = target: T3, IRF4 DBD C99R (Homo sapiens) (UniProt Q15306); assay: SPR; details: max response ~5 RU; residues 20-132
T3 sequence (looked up): T1 sequence (looked up) with A79R, A80R

[8] = target: T4, IRF4 DBD wild-type (Homo sapiens) (UniProt Q15306); assay: SPR; details: negligible binding; residues 20-132
T4 sequence (looked up): T1 sequence (looked up) with A79R, A80C

CTTGGTTTCACTTCCTGCGTTTTCGCAGGAAGTGAAACCAAG [IRE hairpin (biotin)]
Kd [1]: > 4.5 µM | Kd [2]: > 4.5 µM | Kd [3]: > 4.5 µM | Kd [4]: > 4.5 µM

CTTGGTTTCACTTCCTGCGTTTTCGCAGGAAGTGAAACCAAG [IRE hairpin (FAM)]
Kd [5]: > 10 µM | Kd [6]: > 10 µM

AAGCATACAGAGAGACGCATATATGCGTCTCTCTGTATGCTT [scrIRE hairpin (biotin)]
binding result [7]: binds more weakly | binding result [8]: no binding

Positions count from the first letter of the chain named. For some assays here: A negative result means that nothing was seen under these conditions. For some assays here: At least one verdict rests on a figure or table, not on a statement of the authors. Protein sequences can lack the tags named with them. For some assays here: A weaker result is weaker than the reference pair of the same experiment.
